Earlier results, collected in US20200038560A1, “LIMUS COATINGS AND METHODS OF USE THEREOF” (COOK MEDICAL TECHNOLOGIES LLC, priority 2018, published 2020).
Some results were stated once for a whole list of compounds, not compound by compound. At least one structure is not confirmed: it was looked up by name or label, or the drawing left a doubt.

Settings: in water; stated as known property of each agent

Water solubility, less than 10 micrograms/ml:
CO[C@H]1C[C@@H]2CC[C@@H](C)[C@@](O)(O2)C(=O)C(=O)N2CCCC[C@H]2C(=O)O[C@H]([C@H](C)C[C@@H]2CC[C@@H](O)[C@H](OC)C2)CC(=O)[C@H](C)/C=C(\C)[C@@H](O)[C@@H](OC)C(=O)[C@H](C)C[C@H](C)/C=C/C=C/C=C/1C [Sirolimus, sirolimus]
CO[C@H]1C[C@@H]2CC[C@@H](C)[C@@](O)(O2)C(=O)C(=O)N2CCCC[C@H]2C(=O)O[C@H]([C@H](C)C[C@@H]2CC[C@@H](OCCO)[C@H](OC)C2)CC(=O)[C@H](C)/C=C(\C)[C@@H](O)[C@@H](OC)C(=O)[C@H](C)C[C@H](C)/C=C/C=C/C=C/1C [everolimus]
CO[C@@H]1C[C@H](C[C@@H](C)[C@@H]2CC(=O)[C@H](C)/C=C(\C)[C@@H](O)[C@@H](OC)C(=O)[C@H](C)C[C@H](C)/C=C/C=C/C=C(\C)[C@@H](O)C[C@@H]3CC[C@@H](C)[C@@](O)(O3)C(=O)C(=O)N3CCCC[C@H]3C(=O)O2)CC[C@H]1O [novolimus]
CC[C@@H]1/C=C(\C)C[C@H](C)C[C@H](OC)[C@H]2O[C@@](O)(C(=O)C(=O)N3CCCC[C@H]3C(=O)O[C@H](/C(C)=C/[C@@H]3CC[C@H](Cl)[C@H](OC)C3)[C@H](C)[C@@H](O)CC1=O)[C@H](C)C[C@@H]2OC [pimecrolimus]
C=CC[C@@H]1/C=C(\C)C[C@H](C)C[C@H](OC)[C@H]2O[C@@](O)(C(=O)C(=O)N3CCCC[C@H]3C(=O)O[C@H](/C(C)=C/[C@@H]3CC[C@@H](O)[C@H](OC)C3)[C@H](C)[C@@H](O)CC1=O)[C@H](C)C[C@@H]2OC [tacrolimus]
CO[C@H]1C[C@@H]2CC[C@@H](C)[C@@](O)(O2)C(=O)C(=O)N2CCCC[C@H]2C(=O)O[C@H]([C@H](C)C[C@@H]2CC[C@@H](OC(=O)C(C)(CO)CO)[C@H](OC)C2)CC(=O)[C@H](C)/C=C(\C)[C@@H](O)[C@@H](OC)C(=O)[C@H](C)C[C@H](C)/C=C/C=C/C=C/1C [temsirolimus]
CO[C@H]1C[C@@H]2CC[C@@H](C)[C@@](O)(O2)C(=O)C(=O)N2CCCC[C@H]2C(=O)O[C@H]([C@H](C)C[C@@H]2CC[C@H](n3cnnn3)[C@H](OC)C2)CC(=O)[C@H](C)/C=C(\C)[C@@H](O)[C@@H](OC)C(=O)[C@H](C)C[C@H](C)/C=C/C=C/C=C/1C [zotarolimus]
